From patent US20200239888 come the findings set out here.

The exact form of at least one protein or probe is not confirmed. Tags and fusion partners may be left off the protein sequences shown. A value given as a limit tells only on which side of the number the result lay.

The Kd is a measure of binding affinity in units of concentration. A low value points to a tighter complex.

Test in all cases: binding assay
Series [1] deals with T1, FUS(213-375)-NLUC-HA (UniProt P35637).
T1 sequence (looked up): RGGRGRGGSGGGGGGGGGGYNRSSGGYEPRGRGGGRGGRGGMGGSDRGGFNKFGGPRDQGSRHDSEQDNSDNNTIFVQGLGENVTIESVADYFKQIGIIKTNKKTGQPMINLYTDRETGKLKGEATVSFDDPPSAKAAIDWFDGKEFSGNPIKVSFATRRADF
The conditions noted are these: full PS, nanoBRET, protein translated in vitro, protein details: C-terminal NLUC-HA, PURExpress, bead-bound, label: 5'-AF594.

In series [2] the target is T2, FUS(375-421)-NLUC-HA (UniProt P35637).
T2 sequence (looked up): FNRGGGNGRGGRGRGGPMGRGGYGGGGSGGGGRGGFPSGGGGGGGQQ
The conditions noted are these: full PS, nanoBRET, protein translated in vitro, protein details: C-terminal NLUC-HA, PURExpress, bead-bound, label: 5'-AF594. In general terms: BRET reads energy transfer from a luciferase to a nearby fluorophore.

For series [3], the target named is T3, FUS(1-526)[P525L]-NLUC-HA (UniProt P35637).
T3 sequence (looked up): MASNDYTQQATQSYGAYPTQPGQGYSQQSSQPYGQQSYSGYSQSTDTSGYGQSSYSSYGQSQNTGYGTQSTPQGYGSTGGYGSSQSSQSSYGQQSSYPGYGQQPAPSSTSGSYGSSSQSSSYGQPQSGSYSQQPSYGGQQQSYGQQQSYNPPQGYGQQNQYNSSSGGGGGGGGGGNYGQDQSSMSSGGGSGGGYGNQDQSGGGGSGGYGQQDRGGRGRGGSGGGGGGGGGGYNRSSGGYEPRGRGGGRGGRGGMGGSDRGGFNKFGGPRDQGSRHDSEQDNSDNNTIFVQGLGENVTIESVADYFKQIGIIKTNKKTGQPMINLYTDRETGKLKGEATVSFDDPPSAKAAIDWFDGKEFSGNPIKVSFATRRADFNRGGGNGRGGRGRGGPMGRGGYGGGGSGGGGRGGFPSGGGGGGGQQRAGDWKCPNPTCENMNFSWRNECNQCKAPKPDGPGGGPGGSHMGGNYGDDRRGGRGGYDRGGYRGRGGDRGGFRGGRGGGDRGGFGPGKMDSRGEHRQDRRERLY
The conditions noted are these: full PS, nanoBRET, protein translated in vitro, protein details: C-terminal NLUC-HA, PURExpress, bead-bound, label: 5'-AF594.

Series [4] deals with T4, FUS(1-375)-NLUC-HA (UniProt P35637).
T4 sequence (looked up): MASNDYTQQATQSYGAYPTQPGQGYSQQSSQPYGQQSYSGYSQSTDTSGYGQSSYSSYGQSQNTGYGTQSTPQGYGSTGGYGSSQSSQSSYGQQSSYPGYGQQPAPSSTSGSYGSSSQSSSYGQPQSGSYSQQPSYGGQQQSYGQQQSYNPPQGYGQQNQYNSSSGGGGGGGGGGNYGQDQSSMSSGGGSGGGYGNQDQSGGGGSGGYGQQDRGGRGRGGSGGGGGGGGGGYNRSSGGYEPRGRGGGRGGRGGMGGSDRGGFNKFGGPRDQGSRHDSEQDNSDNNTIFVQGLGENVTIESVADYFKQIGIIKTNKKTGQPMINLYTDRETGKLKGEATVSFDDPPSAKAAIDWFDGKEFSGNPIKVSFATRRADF
The conditions noted are these: full PS, nanoBRET, protein translated in vitro, protein details: C-terminal NLUC-HA, PURExpress, bead-bound, label: 5'-AF594.

The target of series [5] is T5, FUS(284-375)-NLUC-HA (UniProt P35637).
T5 sequence (looked up): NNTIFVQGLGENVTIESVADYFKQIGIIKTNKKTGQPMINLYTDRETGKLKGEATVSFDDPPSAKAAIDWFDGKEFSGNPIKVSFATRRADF
The conditions noted are these: full PS, nanoBRET, protein translated in vitro, protein details: C-terminal NLUC-HA, PURExpress, bead-bound, label: 5'-AF594.

Series [6] has as its target T6, FUS(1-283)-NLUC-HA (UniProt P35637).
T6 sequence (looked up): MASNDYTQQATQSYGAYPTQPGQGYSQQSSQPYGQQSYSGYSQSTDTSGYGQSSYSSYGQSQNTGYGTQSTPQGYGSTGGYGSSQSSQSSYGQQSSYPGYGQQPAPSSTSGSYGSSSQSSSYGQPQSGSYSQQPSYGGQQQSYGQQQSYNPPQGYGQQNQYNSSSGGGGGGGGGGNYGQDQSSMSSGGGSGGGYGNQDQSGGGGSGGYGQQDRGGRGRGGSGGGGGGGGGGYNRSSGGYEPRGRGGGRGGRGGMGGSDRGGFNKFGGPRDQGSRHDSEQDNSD
The conditions noted are these: full PS, nanoBRET, protein translated in vitro, protein details: C-terminal NLUC-HA, PURExpress, bead-bound, label: 5'-AF594.

Series [7] has as its target T7, FUS(1-526)[P525L]-NLUC-FLAG (UniProt P35637).
T7 sequence (looked up): T3 sequence (looked up)
As to conditions: full PS, nanoBRET, protein translated in vitro, protein details: C-terminal NLUC-FLAG, PURExpress, bead-bound, label: 5'-AF594.

For series [8], the target named is T8, HA-NES-β23-NLUC-FUS(375-526)[P525L] (UniProt P35637).
T8 sequence (looked up): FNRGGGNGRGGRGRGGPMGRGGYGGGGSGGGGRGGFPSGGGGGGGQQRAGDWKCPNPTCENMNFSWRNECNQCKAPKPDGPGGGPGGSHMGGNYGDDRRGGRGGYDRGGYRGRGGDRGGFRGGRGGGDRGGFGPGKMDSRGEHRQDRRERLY
The conditions noted are these: full PS, nanoBRET, protein translated in vitro, protein details: HA-NES-β23-NLUC fusion at N-terminus, label: 5'-AF594.

The target of series [9] is T9, FUS(1-421)-FUS(455-526)[P525L]-NLUC-FLAG deletion 422-454, P525L (UniProt P35637).
T9 sequence (looked up): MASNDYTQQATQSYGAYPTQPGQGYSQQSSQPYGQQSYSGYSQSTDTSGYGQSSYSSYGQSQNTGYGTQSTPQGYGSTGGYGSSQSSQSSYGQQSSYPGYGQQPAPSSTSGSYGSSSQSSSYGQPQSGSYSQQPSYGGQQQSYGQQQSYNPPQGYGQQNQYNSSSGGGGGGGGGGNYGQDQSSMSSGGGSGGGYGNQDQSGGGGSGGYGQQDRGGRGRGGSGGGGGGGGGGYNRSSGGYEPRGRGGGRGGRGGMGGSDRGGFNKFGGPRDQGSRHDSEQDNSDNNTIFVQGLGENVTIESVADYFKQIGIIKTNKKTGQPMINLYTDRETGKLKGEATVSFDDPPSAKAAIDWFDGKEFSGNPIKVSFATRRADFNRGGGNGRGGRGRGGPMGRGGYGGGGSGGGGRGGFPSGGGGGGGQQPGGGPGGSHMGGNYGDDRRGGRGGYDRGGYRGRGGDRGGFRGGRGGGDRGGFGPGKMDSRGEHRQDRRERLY
The conditions noted are these: nanoBRET, protein translated in vitro, protein details: C-terminal NLUC-FLAG, PURExpress, bead-bound, label: 5'-AF594.

Series [10] concerns the target T10, FUS(375-526)[P525L]-NLUC-HA (UniProt P35637).
T10 sequence (looked up): T8 sequence (looked up)
As to conditions: full PS, nanoBRET, protein translated in vitro, protein details: C-terminal NLUC-HA, PURExpress, bead-bound, label: 5'-AF594.

Series [11] concerns the target T11, FUS(455-526)[P525L]-NLUC-HA (UniProt P35637).
T11 sequence (looked up): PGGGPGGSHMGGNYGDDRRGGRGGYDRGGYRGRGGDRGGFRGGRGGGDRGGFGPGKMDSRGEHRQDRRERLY
As to conditions: full PS, nanoBRET, protein translated in vitro, protein details: C-terminal NLUC-HA, PURExpress, bead-bound, label: 5'-AF594.

In series [12] the target is T12, NLUC-FUS(1-526)[P525L]-HA (UniProt P35637).
T12 sequence (looked up): T3 sequence (looked up)
The conditions noted are these: full PS, nanoBRET, protein translated in vitro, label: 5'-AF594.

Series [13] deals with T13, FUS(242-375)-NLUC-HA (UniProt P35637).
T13 sequence (looked up): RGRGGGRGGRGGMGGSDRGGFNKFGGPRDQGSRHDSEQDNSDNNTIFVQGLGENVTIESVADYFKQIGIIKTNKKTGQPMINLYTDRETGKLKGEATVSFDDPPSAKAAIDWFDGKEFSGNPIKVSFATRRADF
As to conditions: full PS, nanoBRET, protein translated in vitro, protein details: C-terminal NLUC-HA, PURExpress, bead-bound, label: 5'-AF594.

Setting [14] is: 2'-MOE at 1-5 and 16-20, DNA at 6-15, all C 5mC.
[15] abbreviates: cEt at 1-5 and 16-20, DNA at 6-15, all C 5mC.
The mark [16] stands for this setting: 2'-F at 1-5 and 16-20, DNA at 6-15, 5mC at C8, C9, C11.

Turning to “CTGCTAGCCTCTGGATTTGA [766633 (2'-MOE 5-10-5 gapmer)]”, the Kd in [1] (setting [14]) is 10 nM; in series [2] (setting [14]) it was 291 nM; in [3] (setting [14]), 16.4 nM; in [4] (2'-MOE at 1-5 and 16-20, DNA at 6-15, all C 5mC, repeat 11.8 nM in Table 15), 16.7 nM; in [5] (2'-MOE at 1-5 and 16-20, DNA at 6-15, all C 5mC, repeat >1000 nM in Table 15), above 1000 nM; in [6] (2'-MOE at 1-5 and 16-20, DNA at 6-15, all C 5mC, 100 mM KOAc, 20 mM Tris pH 8.0, RT), 44.7 nM. The dissociation constant Kd in [7] (setting [14]) came to 1.2 nM; in series [8] (setting [14]), 164 nM; in [9] (2'-MOE at 1-5 and 16-20, DNA at 6-15, full PS, all C 5mC) it was 4.2 nM; in series [10] (2'-MOE at 1-5 and 16-20, DNA at 6-15, all C 5mC, repeat 23.7 nM in Table 16 (printed P252L)), 36.8 nM; in [11] (setting [14]), 39.4 nM; in [12] (setting [14]), 16.6 nM. In addition, the Kd in series [13] (setting [14]) is 103 nM.
“CTGCTAGCCTCTGGATTTGA [766635 (cEt 5-10-5 gapmer)]”: the Kd in series [1] (setting [15]) was 9 nM; in series [2] (setting [15]) it was 203 nM; in [3] (setting [15]), 17.2 nM; in series [4] (cEt at 1-5 and 16-20, DNA at 6-15, all C 5mC, repeat 11.3 nM in Table 15), 12.1 nM; in series [5] (cEt at 1-5 and 16-20, DNA at 6-15, all C 5mC, repeat >1000 nM in Table 15), above 1000 nM; in series [6] (setting [15]) it was 35.2 nM. For the same sequence, the Kd in series [7] (setting [15]) was found to be 3 nM; in [8] (setting [15]), 58.4 nM; in series [9] (cEt at 1-5 and 16-20, DNA at 6-15, full PS, all C 5mC), 6.8 nM; in series [10] (cEt at 1-5 and 16-20, DNA at 6-15, all C 5mC, repeat 19 nM in Table 16 (printed P252L)), 30.7 nM; in series [11] (setting [15]), 34.3 nM; in [12] (setting [15]), 12.4 nM. This sequence had an equilibrium dissociation constant (Kd) in series [13] (setting [15]) of 117 nM.
For the sequence “CUGCUAGCCTCTGGAUUUGA [766637 (2'-F 5-10-5 gapmer)]”, the Kd worked out at 0.9 nM in [1] (setting [16]); 40.8 nM in series [2] (setting [16]); 2.2 nM in series [3] (setting [16]); 1.4 nM in [4] (2'-F at 1-5 and 16-20, DNA at 6-15, 5mC at C8, C9, C11, repeat 0.8 nM in Table 15); 340 nM in series [5] (2'-F at 1-5 and 16-20, DNA at 6-15, 5mC at C8, C9, C11, repeat 424.1 nM in Table 15); 7.1 nM in series [6] (setting [16]). Also, the Kd in series [7] (setting [16]) came out at 0.4 nM; in series [8] (setting [16]), 13.8 nM; in [9] (2'-F at 1-5 and 16-20, DNA at 6-15, full PS, 5mC at C8, C9, C11), 1.1 nM; in [10] (2'-F at 1-5 and 16-20, DNA at 6-15, 5mC at C8, C9, C11, repeat 2.9 nM in Table 16 (printed P252L)) it was 4.4 nM; in [11] (setting [16]), 6.6 nM; in series [12] (setting [16]), 1.9 nM. For the same sequence, the Kd in series [13] (setting [16]) was found to be 11 nM.
“CUGCUAGCCUCUGGAUUUGA [JB39 (RNA, phosphodiester)]” displayed a Kd in [9] of 206 nM.
